Among the data in PMC3271067 are binding values, retold here.

The target of assay [1] is T1, Kar3-3HA (S. cerevisiae) (UniProt P17119).
T1 sequence: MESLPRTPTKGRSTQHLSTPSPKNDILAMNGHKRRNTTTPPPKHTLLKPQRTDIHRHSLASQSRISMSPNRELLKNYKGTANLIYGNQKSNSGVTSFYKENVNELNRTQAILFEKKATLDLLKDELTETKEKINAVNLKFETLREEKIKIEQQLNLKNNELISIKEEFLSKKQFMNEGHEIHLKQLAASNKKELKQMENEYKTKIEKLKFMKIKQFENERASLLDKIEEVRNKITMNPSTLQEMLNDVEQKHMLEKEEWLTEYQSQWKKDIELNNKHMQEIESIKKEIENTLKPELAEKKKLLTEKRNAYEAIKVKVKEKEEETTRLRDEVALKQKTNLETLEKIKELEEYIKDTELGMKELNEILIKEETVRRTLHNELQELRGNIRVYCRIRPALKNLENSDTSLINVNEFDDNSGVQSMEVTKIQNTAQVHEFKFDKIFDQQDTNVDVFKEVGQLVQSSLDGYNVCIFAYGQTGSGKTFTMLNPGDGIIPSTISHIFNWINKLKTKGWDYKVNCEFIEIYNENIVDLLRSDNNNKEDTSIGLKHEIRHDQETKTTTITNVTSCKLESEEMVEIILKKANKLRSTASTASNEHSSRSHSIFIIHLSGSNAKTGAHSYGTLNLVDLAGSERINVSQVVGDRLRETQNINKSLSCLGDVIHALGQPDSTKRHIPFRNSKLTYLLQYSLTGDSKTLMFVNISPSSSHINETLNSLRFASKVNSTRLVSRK
Nature of the assay: condition: only with CIK1-CC overexpressed (galactose for 3 hrs); co-IP; as a1 (IP with anti-HA antibody), but cells carry the PGALCIK1-CC plasmid and overexpress CIK1-CC (galactose for 3 hrs).

For assay [2], the target named is T1, Kar3-3HA (S. cerevisiae). The experiment in a line: co-IP; yeast cell extracts in RIPA buffer (25 mM Tris pH 7.5, 10 mM EDTA, 150 mM NaCl, 0.05% Tween-20), IP with anti-HA antibody overnight at 4°C, protein-A agarose, blots with anti-HA and anti-myc; mid-log cells or cells with the empty vector in galactose for 3 hrs.

These are yes or no findings as the source states them, for the method shown. Binding seen in cells or lysates may run through a third protein. Some results given as binding are weak or reduced against the parent protein; the word gives no strength. Where a sequence is shown, tags or fusion partners need not be part of it.

B1: Cik1-13myc (protein, UniProt Q01649 1-594)
chain: MNNSKIPKLSFHSDPNNVTRDFPKTKRQKVQKREMDMILTPNNNKLNILHSSGSGIRRCYTDDTSATYTKKLTFGGDPKIIERVKNNERKVRKDIDSLLNAISEIEKESVRIHARELPAITLELDAKVKACRELQNEIDGLSTEMDLKDNQCDLQRKNVELSSKNIVSMHAVKVQEFENDLEEELSNAKREWTYKLMEVENLKPDERLTDEMRQLKTEFEEVNRKLFILQNENENECKNYKKELDKKFEIFKKVKNDARIELDGEQERLSKVLKDLQDTHGELKENIKTCRDEFNDFEKRIGEAEVNFHSMELAVVPLKKKLASTSQALTQVQEEKKQVEGEANNWKKKYVNELEKVQQELYTRQNLATSIEEIKGYTRCFAYANERQMPDEFHINYVDRCICENSGEKRVQVFDRVVLEEIHKDHKRLYNECIPFLEKYISKLINCSIIVVSQQPTAPMKKTLLKQLIEQYGENYKMTLNILHLDGSIKHSDVGLDNPTEIRDLSQDEECMNILTLDTKLGKDEESHSMNIYIGSMSTVQLNRELDDAPSVLSHILTKTKQCFVFKINAGENIEKALALAGKLKRTITLPQLD
For B1, the binding entry in assay [1] is reported as “no binding”; in assay [2], “binds”.

B2: Vik1-13myc (protein, UniProt Q12045 1-647)
chain: MASQQNKHAFLSKNRIFHNPDNVSSSKSRNLMDITNTTNTMNGSRPSSMKSSLALPPVKDSFPSVSRSASLNINMSKIKDLKDRQDKIRFQRHTLRTQLIECEREIKTIKFRDLNKSRFELYKKKSKQAKYLKQVRDLTQNLNSKDGERADLIKKNKSALATLQAELDQNLILKRQESQELYNNKLIFWENELQIMENVEPDHEITEEISQLKKTLQELNINWANLQKQNLERQVNHESQLRKDFIAFKEAKLKSMENLTNKHRELLDQIATLQSESEKLHKEIMDIDRQAEYSEQNISEINENIKQLELANNPLISKSLQNSQDLEHLQNQMENLKEMASKQEKFYNDTYNTVEKELLRSRRLENSIIEQKGTMRCYAYVMEQNLPENLLFDYENGVITQGLSEHVYKFNRVIPHLKVSEDKFFTQEYSVYHDMCLNQKKNFNLISLSTTPHGSLRESLIKFLAEKDTIYQKQYVITLQFVFLSDDEFSQDMLLDYSHNDKDSIKLKFEKHSISLDSKLVIIENGLEDLPLNFSCDEHPNLPHSGMGIIKVQFFPRDSKSDGNNDPVPVDFYFIELNNLKSIEQFDKSIFKKESCETPIALVLKKLISDTKSFFLLNLNDSKNVNKLLTISEEVQTQLCKRKKKLT
Turning to B2, the binding entry in assay [2] was “binds”.
